# Assay results taken from the supplement of paper PMC10849652.
# The chains behind the UniProt entries cited, without tags or fusion partners. Where a name states a change or a piece, a line headed by the entry shows the natural chain unless it says otherwise.
# UniProt Q6NZ67, whole entry, looked up: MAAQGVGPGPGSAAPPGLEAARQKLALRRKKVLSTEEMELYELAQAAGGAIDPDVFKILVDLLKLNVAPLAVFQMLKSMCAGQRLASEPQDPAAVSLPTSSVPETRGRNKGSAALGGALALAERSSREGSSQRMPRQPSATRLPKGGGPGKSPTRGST
# UniProt O95167, whole entry, looked up: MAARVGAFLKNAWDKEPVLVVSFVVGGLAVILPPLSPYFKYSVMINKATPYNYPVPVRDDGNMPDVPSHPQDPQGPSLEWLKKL
# UniProt P52298: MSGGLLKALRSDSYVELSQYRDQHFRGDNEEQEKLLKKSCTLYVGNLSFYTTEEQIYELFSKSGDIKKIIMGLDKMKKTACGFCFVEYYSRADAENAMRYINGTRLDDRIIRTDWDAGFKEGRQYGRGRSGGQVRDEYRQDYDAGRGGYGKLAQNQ
# UniProt Q9BTX1: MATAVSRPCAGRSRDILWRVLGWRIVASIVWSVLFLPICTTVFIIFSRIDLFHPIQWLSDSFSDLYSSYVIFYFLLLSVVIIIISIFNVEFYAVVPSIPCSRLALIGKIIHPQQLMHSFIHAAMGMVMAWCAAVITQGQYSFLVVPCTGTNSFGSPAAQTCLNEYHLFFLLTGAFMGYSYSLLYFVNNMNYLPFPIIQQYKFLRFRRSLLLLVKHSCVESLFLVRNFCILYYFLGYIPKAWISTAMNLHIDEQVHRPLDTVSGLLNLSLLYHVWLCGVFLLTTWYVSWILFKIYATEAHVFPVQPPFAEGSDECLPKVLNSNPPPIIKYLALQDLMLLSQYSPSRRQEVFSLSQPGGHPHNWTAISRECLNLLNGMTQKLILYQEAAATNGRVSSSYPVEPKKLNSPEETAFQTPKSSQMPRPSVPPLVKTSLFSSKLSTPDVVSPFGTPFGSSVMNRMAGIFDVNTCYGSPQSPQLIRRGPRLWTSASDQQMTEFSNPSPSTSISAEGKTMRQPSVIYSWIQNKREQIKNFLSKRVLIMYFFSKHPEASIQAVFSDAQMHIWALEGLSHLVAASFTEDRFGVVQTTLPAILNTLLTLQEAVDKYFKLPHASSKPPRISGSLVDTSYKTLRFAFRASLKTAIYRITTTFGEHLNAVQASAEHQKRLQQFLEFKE
# UniProt Q9BU61: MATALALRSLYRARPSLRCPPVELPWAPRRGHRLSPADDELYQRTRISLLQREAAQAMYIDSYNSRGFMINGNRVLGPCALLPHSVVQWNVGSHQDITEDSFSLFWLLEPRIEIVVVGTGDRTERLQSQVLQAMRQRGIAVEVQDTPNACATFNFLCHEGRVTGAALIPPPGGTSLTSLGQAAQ
# UniProt O95139, whole entry, looked up: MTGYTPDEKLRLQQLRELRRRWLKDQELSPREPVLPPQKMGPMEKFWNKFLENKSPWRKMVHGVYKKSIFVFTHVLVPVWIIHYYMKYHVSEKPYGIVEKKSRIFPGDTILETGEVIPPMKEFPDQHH
# UniProt P56181: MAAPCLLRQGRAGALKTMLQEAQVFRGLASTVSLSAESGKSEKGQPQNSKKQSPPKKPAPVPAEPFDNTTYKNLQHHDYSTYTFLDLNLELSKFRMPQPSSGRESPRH
# UniProt Q14CX7, whole entry, looked up: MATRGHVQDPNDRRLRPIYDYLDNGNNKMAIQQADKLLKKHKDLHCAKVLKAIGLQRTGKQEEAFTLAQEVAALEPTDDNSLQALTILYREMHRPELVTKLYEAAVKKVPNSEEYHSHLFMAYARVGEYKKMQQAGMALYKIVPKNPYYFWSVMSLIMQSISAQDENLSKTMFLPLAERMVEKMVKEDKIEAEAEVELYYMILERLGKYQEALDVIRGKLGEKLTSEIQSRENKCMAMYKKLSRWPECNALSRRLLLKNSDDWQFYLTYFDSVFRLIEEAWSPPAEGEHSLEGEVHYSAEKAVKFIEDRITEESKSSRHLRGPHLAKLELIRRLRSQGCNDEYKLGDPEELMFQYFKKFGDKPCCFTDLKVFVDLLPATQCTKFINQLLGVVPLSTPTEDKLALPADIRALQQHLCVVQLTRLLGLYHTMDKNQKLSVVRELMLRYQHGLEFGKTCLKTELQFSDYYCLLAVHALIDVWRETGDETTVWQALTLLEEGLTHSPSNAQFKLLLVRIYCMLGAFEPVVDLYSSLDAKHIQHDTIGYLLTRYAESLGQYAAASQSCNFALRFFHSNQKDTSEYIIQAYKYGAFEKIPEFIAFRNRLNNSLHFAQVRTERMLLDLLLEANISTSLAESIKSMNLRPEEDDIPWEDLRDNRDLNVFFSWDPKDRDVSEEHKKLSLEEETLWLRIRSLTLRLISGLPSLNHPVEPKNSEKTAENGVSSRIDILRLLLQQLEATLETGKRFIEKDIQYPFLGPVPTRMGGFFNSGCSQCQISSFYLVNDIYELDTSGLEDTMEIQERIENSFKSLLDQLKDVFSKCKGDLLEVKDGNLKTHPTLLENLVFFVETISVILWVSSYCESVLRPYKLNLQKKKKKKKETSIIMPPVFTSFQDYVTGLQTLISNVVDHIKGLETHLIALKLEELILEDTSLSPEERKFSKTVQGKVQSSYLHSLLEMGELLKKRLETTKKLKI
# UniProt O75376, whole entry, looked up: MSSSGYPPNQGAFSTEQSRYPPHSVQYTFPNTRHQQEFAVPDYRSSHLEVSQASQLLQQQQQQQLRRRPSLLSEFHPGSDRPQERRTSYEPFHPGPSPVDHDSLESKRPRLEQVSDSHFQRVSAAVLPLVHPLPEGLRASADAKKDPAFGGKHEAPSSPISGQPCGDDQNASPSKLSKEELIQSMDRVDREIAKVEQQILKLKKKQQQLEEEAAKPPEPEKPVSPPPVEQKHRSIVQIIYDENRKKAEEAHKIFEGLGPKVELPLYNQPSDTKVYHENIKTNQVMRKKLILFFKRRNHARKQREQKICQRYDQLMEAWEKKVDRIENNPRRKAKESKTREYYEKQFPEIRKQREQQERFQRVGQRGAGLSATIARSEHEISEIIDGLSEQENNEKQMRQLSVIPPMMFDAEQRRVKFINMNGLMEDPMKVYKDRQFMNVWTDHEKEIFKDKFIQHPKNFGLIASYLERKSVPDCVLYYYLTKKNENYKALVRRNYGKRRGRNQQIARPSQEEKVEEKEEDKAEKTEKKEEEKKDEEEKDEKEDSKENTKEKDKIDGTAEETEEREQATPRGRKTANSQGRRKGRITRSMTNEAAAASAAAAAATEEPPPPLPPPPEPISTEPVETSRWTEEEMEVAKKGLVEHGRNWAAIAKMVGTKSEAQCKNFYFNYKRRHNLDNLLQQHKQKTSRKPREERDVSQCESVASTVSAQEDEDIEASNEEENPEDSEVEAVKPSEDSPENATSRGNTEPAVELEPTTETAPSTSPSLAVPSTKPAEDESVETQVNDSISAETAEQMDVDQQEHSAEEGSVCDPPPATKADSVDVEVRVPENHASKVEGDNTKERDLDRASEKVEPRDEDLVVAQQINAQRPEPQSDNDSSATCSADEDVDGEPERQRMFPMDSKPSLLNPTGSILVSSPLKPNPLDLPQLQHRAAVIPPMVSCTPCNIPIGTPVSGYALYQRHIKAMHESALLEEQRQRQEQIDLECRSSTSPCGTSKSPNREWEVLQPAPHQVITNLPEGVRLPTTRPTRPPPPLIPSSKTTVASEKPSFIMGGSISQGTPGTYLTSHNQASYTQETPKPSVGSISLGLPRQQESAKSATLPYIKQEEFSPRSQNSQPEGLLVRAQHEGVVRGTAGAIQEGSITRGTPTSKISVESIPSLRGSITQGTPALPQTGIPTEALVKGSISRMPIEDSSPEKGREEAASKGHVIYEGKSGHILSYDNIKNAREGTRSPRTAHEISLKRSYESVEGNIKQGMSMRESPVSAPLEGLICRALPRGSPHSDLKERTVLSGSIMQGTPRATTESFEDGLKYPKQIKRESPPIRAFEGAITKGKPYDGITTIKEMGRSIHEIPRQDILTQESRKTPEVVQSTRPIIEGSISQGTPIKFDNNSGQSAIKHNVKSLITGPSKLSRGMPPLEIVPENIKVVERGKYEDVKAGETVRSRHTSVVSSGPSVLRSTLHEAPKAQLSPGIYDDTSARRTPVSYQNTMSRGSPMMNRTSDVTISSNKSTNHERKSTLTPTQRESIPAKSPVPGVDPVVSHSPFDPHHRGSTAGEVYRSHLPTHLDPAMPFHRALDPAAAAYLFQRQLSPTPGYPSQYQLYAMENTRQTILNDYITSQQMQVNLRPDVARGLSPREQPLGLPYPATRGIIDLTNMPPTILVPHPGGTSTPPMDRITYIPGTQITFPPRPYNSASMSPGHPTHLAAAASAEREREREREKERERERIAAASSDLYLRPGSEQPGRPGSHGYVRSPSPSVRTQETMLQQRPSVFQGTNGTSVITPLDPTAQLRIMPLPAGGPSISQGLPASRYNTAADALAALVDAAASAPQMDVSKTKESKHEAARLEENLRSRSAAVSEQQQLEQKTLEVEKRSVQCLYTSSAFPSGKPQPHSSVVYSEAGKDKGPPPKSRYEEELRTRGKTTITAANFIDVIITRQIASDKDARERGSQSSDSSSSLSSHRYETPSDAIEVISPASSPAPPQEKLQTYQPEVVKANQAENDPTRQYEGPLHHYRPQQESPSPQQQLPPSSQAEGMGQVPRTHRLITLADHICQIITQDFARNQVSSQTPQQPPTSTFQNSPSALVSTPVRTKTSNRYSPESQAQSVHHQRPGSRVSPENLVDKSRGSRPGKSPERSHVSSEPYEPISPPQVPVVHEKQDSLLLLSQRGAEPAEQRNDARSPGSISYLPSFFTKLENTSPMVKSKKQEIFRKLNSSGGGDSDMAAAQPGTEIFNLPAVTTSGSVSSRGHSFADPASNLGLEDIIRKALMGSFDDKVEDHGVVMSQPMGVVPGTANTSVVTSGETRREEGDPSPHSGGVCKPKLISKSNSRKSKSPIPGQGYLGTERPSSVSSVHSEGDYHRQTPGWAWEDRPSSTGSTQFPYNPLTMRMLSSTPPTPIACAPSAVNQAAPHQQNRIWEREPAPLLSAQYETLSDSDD
# UniProt Q99747: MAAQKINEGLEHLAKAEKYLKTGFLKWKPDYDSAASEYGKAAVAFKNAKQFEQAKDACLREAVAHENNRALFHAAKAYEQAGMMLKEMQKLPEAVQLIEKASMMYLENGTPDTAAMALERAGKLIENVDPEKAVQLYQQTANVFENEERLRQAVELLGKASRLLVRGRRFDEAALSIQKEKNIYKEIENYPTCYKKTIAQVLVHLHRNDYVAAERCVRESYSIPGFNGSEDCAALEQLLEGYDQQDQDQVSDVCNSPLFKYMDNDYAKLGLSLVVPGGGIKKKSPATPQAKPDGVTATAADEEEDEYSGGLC
# UniProt Q96PU5: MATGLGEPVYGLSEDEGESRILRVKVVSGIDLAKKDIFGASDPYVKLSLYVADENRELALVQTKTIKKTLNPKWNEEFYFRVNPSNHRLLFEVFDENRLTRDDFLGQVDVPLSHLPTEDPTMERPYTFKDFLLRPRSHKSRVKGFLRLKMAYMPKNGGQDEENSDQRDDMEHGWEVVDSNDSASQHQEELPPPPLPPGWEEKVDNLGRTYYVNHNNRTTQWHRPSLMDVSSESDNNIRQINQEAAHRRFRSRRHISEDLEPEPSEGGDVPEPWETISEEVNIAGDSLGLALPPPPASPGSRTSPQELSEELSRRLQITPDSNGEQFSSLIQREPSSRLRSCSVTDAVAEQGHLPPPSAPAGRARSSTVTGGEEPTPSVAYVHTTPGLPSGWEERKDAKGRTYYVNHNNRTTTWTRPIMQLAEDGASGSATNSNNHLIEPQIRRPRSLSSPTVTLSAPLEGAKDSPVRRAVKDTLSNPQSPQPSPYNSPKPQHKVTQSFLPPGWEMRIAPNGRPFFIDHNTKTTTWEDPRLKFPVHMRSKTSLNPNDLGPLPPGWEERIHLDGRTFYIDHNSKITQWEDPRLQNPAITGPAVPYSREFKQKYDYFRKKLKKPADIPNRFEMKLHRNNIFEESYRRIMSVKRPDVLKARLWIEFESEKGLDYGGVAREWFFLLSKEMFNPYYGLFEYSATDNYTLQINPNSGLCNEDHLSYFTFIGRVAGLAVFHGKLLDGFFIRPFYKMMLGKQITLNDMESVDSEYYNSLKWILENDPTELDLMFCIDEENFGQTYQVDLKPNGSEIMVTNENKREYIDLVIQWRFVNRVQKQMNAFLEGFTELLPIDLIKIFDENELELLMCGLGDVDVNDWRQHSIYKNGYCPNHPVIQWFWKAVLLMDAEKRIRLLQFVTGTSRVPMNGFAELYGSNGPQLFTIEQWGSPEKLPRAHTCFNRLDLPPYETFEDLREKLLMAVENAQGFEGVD
# UniProt O95298, whole entry, looked up: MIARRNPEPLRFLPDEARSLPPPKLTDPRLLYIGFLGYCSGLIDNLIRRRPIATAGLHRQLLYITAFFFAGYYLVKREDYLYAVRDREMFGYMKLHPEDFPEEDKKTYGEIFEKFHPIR
# UniProt Q9NVZ3: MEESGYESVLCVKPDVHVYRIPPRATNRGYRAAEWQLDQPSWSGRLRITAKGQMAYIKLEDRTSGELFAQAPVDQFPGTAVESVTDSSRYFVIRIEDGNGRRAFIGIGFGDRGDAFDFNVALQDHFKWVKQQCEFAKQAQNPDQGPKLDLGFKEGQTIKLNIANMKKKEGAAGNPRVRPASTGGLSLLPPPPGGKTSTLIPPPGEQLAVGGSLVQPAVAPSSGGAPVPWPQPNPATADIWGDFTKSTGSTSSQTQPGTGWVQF
# This is one part of the list.
# Compound: Cc1sc2c(c1C)C(c1ccc(Cl)cc1)=N[C@@H](CC(=O)OC(C)(C)C)c1nnc(C)n1-2
# Assay: log2 fold change, soluble protein after heating vs DMSO (PISA); higher = thermal stabilisation; K562 cells, 10 uM, 30 min; active = over 0.2 and 3.5 SD of the protein, either way, in both replicates (recomputed)
# Procedure, shortened: (§1)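 K562 cells at 2×10^6 cells/mL were treated for 30 min with 10 μM compound, and aliquots were heated for 3 min over 48°C-58°C before pooling. Extraction used PBS with 0.5% NP-40 at 4°C, and soluble protein was the supernatant after 21,000xg for 90 min, measured by TMTpro 16plex LC-MS/MS with channel sums equalised. Thermal stability values, relative to control samples and from duplicates, are log2 fold changes.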
row,Target,log2 fold change
1,MZT2B (UniProt Q6NZ67),inactive: 0.02
2,NCR3LG1 (UniProt Q68D85),inactive: 0.036
3,NDUFA3 (UniProt O95167),inactive: -0.176
4,NCBP2 (UniProt P52298),inactive: 0.035
5,NDC1 (UniProt Q9BTX1),inactive: -0.054
6,"NAA15, A0A0B4J1W3",inactive: 0.014
7,NCOA3 (UniProt Q9Y6Q9),inactive: -0.091
8,NAA38 isoform 2 (UniProt Q9BRA0),inactive: -0.029
9,NCOA7 (UniProt Q8NI08),inactive: 0.016
10,NDUFAF3 (UniProt Q9BU61),inactive: -0.079
11,NDUFB6 (UniProt O95139),inactive: 0.034
12,N6AMT1 (UniProt Q9Y5N5),inactive: -0.175
13,NDUFV3 (UniProt P56181),inactive: -0.103
14,NAA25 (UniProt Q14CX7),inactive: -0.017
15,NDUFA11 (UniProt Q86Y39),inactive: -0.057
16,NCOR1 (UniProt O75376),inactive: 0.016
17,NDUFS8 (UniProt O00217),inactive: -0.023
18,NAA20 (UniProt P61599),inactive: -0.123
19,NAPG (UniProt Q99747),inactive: -0.023
20,NDOR1 isoform 2 (UniProt Q9UHB4),inactive: -0.015
21,NDUFS4 (UniProt O43181),inactive: 0.093
22,NAGA (UniProt P17050),inactive: 0.025
23,NEDD4L (UniProt Q96PU5),inactive: 0.054
24,NAA11 (UniProt Q9BSU3),inactive: -0.12
25,NDUFB8 (UniProt O95169),inactive: -0.002
26,NAA10 (UniProt P41227),inactive: -0.033
27,NDUFC2 (UniProt O95298),inactive: -0.126
28,NECAP2 (UniProt Q9NVZ3),inactive: 0

# Compound: c1ccc([C@@H]2C[C@H]2NC2CCNCC2)cc1
# Assay: as above
# Procedure, shortened: as §1
row,Target,log2 fold change
1,MZT2B (UniProt Q6NZ67),inactive: 0.085
2,NCR3LG1 (UniProt Q68D85),inactive: -0.021
3,NDUFA3 (UniProt O95167),inactive: 0.066
4,NCBP2 (UniProt P52298),inactive: -0.033
5,NDC1 (UniProt Q9BTX1),inactive: -0.031
6,"NAA15, A0A0B4J1W3",inactive: -0.029
7,NCOA3 (UniProt Q9Y6Q9),inactive: -0.027
8,NAA38 isoform 2 (UniProt Q9BRA0),inactive: -0.124
9,NCOA7 (UniProt Q8NI08),inactive: -0.058
10,NDUFAF3 (UniProt Q9BU61),inactive: -0.041
11,NDUFB6 (UniProt O95139),inactive: 0.073
12,N6AMT1 (UniProt Q9Y5N5),inactive: 0.004
13,NDUFV3 (UniProt P56181),inactive: 0.052
14,NAA25 (UniProt Q14CX7),inactive: -0.025
15,NDUFA11 (UniProt Q86Y39),inactive: 0.039
16,NCOR1 (UniProt O75376),inactive: -0.111
17,NDUFS8 (UniProt O00217),inactive: -0.02
18,NAA20 (UniProt P61599),inactive: -0.046
19,NAPG (UniProt Q99747),inactive: -0.077
20,NDOR1 isoform 2 (UniProt Q9UHB4),inactive: -0.036
21,NDUFS4 (UniProt O43181),inactive: 0.086
22,NAGA (UniProt P17050),inactive: 0.062
23,NEDD4L (UniProt Q96PU5),inactive: 0.027
24,NAA11 (UniProt Q9BSU3),inactive: -0.049
25,NDUFB8 (UniProt O95169),inactive: 0.089
26,NAA10 (UniProt P41227),inactive: -0.036
27,NDUFC2 (UniProt O95298),inactive: -0.002
28,NECAP2 (UniProt Q9NVZ3),inactive: -0.014
